Measured values as given in PubChem BioAssay AID1494156 (National Center for Advancing Translational Sciences (NCATS), 2020).
This list was built around the results that the source calls inconclusive (neither active nor inactive); the mix of calls is not that of the screen. Calls come from the whole dose curve. A potency beside an inconclusive call is a rough fit, not a confirmed value.

Experiment: VSV-G qHTS counterscreen for inhibitors of MERS-S pseudo-typed particle cell entry
Conditions: VSV-G pseudotyped particle cell entry, luciferase counterscreen; series mostly up to 57.1 µM

SMILES	Potency
CNCCCC12CCC(c3ccccc31)c1ccccc12	inconclusive: 42.9 µM [inhibitor, partial curve, poor fit]
CN(C)CCC=C1c2ccccc2C(C)(C)c2ccccc21	inconclusive: 34.1 µM [inhibitor, single point]
CN1CCC(=C2c3ccccc3C=Cc3ccccc32)CC1	inconclusive: 24.1 µM [inhibitor, partial curve]
CCOc1ccc(Cc2nccc3cc(OCC)c(OCC)cc23)cc1OCC	inconclusive: 0.482 µM [inhibitor, full curve, poor fit]
